Measurements from patent US20040241754A1, “Modulating neuronal plasticity” (The Salk Institute for Biological Studies, priority 2003, published 2004).
Results are given in words; binding and its absence hold for the method and conditions named. Some results given as binding are weak or reduced against the parent protein; the word gives no strength.

Experiments:
His-GRIP-PDZ6 [1] = molecular target: T1, His-GRIP-PDZ6 (UniProt P97879 672-754); test: displacement of labeled EphB2 from GRIP PDZ6 fragment
T1 construct: domain: PDZ 6; also called GRIP fragment containing only the PDZ 6 domain; PDZ domain 6 of GRIP; not shown: His tag
T1 sequence (looked up): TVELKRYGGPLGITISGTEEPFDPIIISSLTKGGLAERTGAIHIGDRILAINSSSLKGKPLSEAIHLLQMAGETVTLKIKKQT

His-GRIP-PDZ6 [2] = molecular target: T1, His-GRIP-PDZ6; test: summary of the displacement assay with His-GRIP-PDZ6

binding (His-GRIP-PDZ6 [1]): binds
binding (His-GRIP-PDZ6 [2]): binds
Binder: NVYGIESVKI (also called GluR2ct; R2ct) [GluR2 carboxy terminal peptide]
